This assay concerns L1210 leukemia ip in BDF1 mice, survival T/C. The assay is described as follows: NCI In Vivo Anticancer Drug Screen. Data for tumor model L1210 Leukemia (intraperitoneal) in B6D2F1 (BDF1) mice. The note with it: T/C endpoint: mean survival time, higher T/C = longer survival.
Setting [1] is: dose: 400.0 mg/kg/injection, schedule: Q01DX009 (ip), vehicle: saline with Tween-80.
The mark [2] stands for this setting: dose: 400.0 mg/kg/injection, schedule: Q01DX009 (ip), vehicle: Klucel (hydroxypropylcellulose) (HPC).

The list shows only some results of the screen, not a fair sample: it gathers tests that were run many times, whatever their T/C, doses with no T/C, and many T/C values between a quarter and a half above the control. Further doses and runs are listed elsewhere. T/C is the treated group as % of the vehicle group. Some entries give survivors of the animals treated and no T/C: the source holds a T/C of zero for them, seemingly a mark for toxic or unscored doses. Some survivor counts are full or nearly so, which does not show that the dose was tolerated: survival well below the control is almost never listed, so the zero probably covers shortened survival too. Counts of survivors are from the toxicity check (mostly the fifth day) where no day follows; animals may have died later. Schedule codes are those of the source, read here as Q, the interval in days (D) or hours (H), X, the number of doses. Some doses were run more than once; the values are given in rising order. Some schedules carry Z or #; the key to these is not given. For survival time, this PubChem deposit counts one and a half times the control or more as active, and values a quarter to a half above the control carry no call in these data; other NCI protocols may use other cut-offs.

Take `Cc1cc(N=Nc2c(C)ccc3ncccc23)ccc1N`: the survivor count by setting is: (dose: 12.5 mg/kg/injection, schedule: Q01DX001 (ip), vehicle: DMSO) 3 of 6; (dose: 25.0 mg/kg/injection, schedule: Q01DX001 (ip), vehicle: DMSO) 0 of 6; (dose: 50.0 mg/kg/injection, schedule: Q01DX001 (ip), vehicle: DMSO) 0 of 6; (dose: 100.0 mg/kg/injection, schedule: Q01DX001 (ip), vehicle: DMSO) 0 of 6; (dose: 200.0 mg/kg/injection, schedule: Q01DX001 (ip), vehicle: DMSO) 0 of 6; (dose: 400.0 mg/kg/injection, schedule: Q01DX001 (ip), vehicle: DMSO) 0 of 6.
Consider `Nc1ccc2c(c1)C(=O)c1c(C(=O)O)cccc1-2`, for which, under “dose: 300.0 mg/kg/injection, schedule: Q01DX001 (ip), vehicle: carboxymethylcellulose (CMC)”, the survivor count is on record as 0 of 6.
`O=C(O)C(O)c1cccc2ccccc12` (configuration not stated): the survivor count under setting [1] is listed as 5 of 6.
As for `NNc1ncn[nH]1`, the survivor count (dose: 100.0 mg/kg/injection, schedule: Q01DX001 (ip), vehicle: saline with Tween-80) is reported as 0 of 6; the survivor count (dose: 200.0 mg/kg/injection, schedule: Q01DX001 (ip), vehicle: saline with Tween-80) is given as 0 of 6; the survivor count (dose: 400.0 mg/kg/injection, schedule: Q01DX001 (ip), vehicle: saline with Tween-80) is listed as 0 of 6.
As for `COc1ccc(Cl)cc1`, the survivor count under setting [1] is 4 of 6.
Consider `CCCCCCCCN1CCCC(OC(=O)N(C)C)C1` (configuration not stated), for which the survivor count is reported as 1 of 3 (dose: 100.0 mg/kg/injection, schedule: Q04DX002 (ip), vehicle: saline); 0 of 3 (dose: 200.0 mg/kg/injection, schedule: Q04DX002 (ip), vehicle: saline); 0 of 3 (dose: 400.0 mg/kg/injection, schedule: Q04DX002 (ip), vehicle: saline).
Consider `COC1C(NC(=O)N(CCCl)N=O)C(OC(C)=O)OC(COC(C)=O)C1OC(C)=O` (configuration not stated), for which the T/C is, setting by setting: (dose: 1.8 mg/kg/injection, schedule: Q01DX001 (ip), vehicle: saline with Tween-80) 135 % of control; (dose: 2.6 mg/kg/injection, schedule: Q01DX001 (ip), vehicle: saline with Tween-80) 141 % of control; (dose: 4.0 mg/kg/injection, schedule: Q01DX001 (ip), vehicle: saline with Tween-80) 137 % of control. Further, the survivor count (dose: 30.0 mg/kg/injection, schedule: Q01DX001 (ip), vehicle: saline with Tween-80) is recorded as 9 of 10; the survivor count (dose: 45.0 mg/kg/injection, schedule: Q01DX001 (ip), vehicle: saline with Tween-80) was 5 of 10 and 6 of 10; the survivor count (dose: 67.0 mg/kg/injection, schedule: Q01DX001 (ip), vehicle: saline with Tween-80) is 7 of 10 and 10 of 10.
As to `CN(CCO)N=Nc1ccccc1Cl`, the survivor count was 0 of 6 (dose: 12.5 mg/kg/injection, schedule: Q04DX003 (ip), vehicle: other); 3 of 6 and 6 of 6 (dose: 25.0 mg/kg/injection, schedule: Q04DX003 (ip), vehicle: other); 0 of 6 and 6 of 6 (dose: 50.0 mg/kg/injection, schedule: Q04DX003 (ip), vehicle: other); 1 of 6 (dose: 100.0 mg/kg/injection, schedule: Q01DX009 (ip), vehicle: other); 0 of 6 and 6 of 6 (dose: 100.0 mg/kg/injection, schedule: Q04DX003 (ip), vehicle: other); 0 of 6 (dose: 200.0 mg/kg/injection, schedule: Q01DX009 (ip), vehicle: other). Besides, the survivor count is on record as 3 of 6 (dose: 200.0 mg/kg/injection, schedule: Q04DX003 (ip), vehicle: other) and 0 of 6 (dose: 400.0 mg/kg/injection, schedule: Q01DX009 (ip), vehicle: other).
Consider `COc1cc([N+](=O)[O-])ccc1NC(=O)Nc1cc(C)ccn1`, for which the survivor count under setting [2] is listed as 4 of 6.
With `CCN(CC)CCN1CC(=O)Nc2cc(Cl)ccc21`, the survivor count by setting is: (dose: 200.0 mg/kg/injection, schedule: Q04DX003 (ip), vehicle: saline) 2 of 6; (dose: 400.0 mg/kg/injection, schedule: Q04DX003 (ip), vehicle: saline) 0 of 6.
As for `COC(=O)/C=C\C(=O)O` (tested in a mixture with another compound), the survivor count (dose: 62.5 mg/kg/injection, schedule: Q#A X Z (ip), vehicle: carboxymethylcellulose (CMC)) is on record as 1 of 6; the survivor count (dose: 125.0 mg/kg/injection, schedule: Q#A X Z (ip), vehicle: carboxymethylcellulose (CMC)) is 0 of 6; the survivor count (dose: 250.0 mg/kg/injection, schedule: Q#A X Z (ip), vehicle: carboxymethylcellulose (CMC)) is on record as 0 of 6.
For `CN(C)N(P(N)(Cl)(c1ccccc1)c1ccccc1)P(N)(Cl)(c1ccccc1)c1ccccc1`, the survivor count is 2 of 4 (dose: 100.0 mg/kg/injection, schedule: Q01DX001 (ip), vehicle: steroid suspending solution); 0 of 4 (dose: 200.0 mg/kg/injection, schedule: Q01DX001 (ip), vehicle: steroid suspending solution); 0 of 4 (dose: 400.0 mg/kg/injection, schedule: Q01DX001 (ip), vehicle: steroid suspending solution).
With `O=C(c1ccccc1)c1c2ccccc2cc2ccccc12`, for the setting “dose: 200.0 mg/kg/injection, schedule: Q01DX009 (ip), vehicle: saline with Tween-80”, the survivor count is given as 6 of 6.
`CC(=O)[O][Hg][c]1c(C)c(C)[c]([Hg][O]C(C)=O)c(C)c1C`: the survivor count is 1 of 3 (dose: 100.0 mg/kg/injection, schedule: Q04DX002 (ip), vehicle: saline with Tween-80); 0 of 3 (dose: 200.0 mg/kg/injection, schedule: Q04DX002 (ip), vehicle: saline with Tween-80); 0 of 3 (dose: 400.0 mg/kg/injection, schedule: Q04DX002 (ip), vehicle: saline with Tween-80).
Consider `C[N+](C)(C)CCC[N+]1(C)CC2C3CCCCC3=C3CCCCC3C2C1` (configuration not stated), for which the survivor count is 1 of 4 (dose: 40.0 mg/kg/injection, schedule: Q01DX001 (ip), vehicle: saline); 0 of 4 (dose: 50.0 mg/kg/injection, schedule: Q01DX001 (ip), vehicle: saline); 0 of 4 (dose: 80.0 mg/kg/injection, schedule: Q01DX001 (ip), vehicle: saline); 0 of 4 (dose: 100.0 mg/kg/injection, schedule: Q01DX001 (ip), vehicle: saline); 0 of 4 (dose: 200.0 mg/kg/injection, schedule: Q01DX001 (ip), vehicle: saline); 0 of 4 (dose: 400.0 mg/kg/injection, schedule: Q01DX001 (ip), vehicle: saline).
On to `N#Cc1[nH]cnc1/N=N/N(CCF)CCF`, for which the survivor count is, setting by setting: (dose: 37.0 mg/kg/injection, schedule: Q01DX009 (ip), vehicle: saline with Tween-80) 0 of 6; (dose: 75.0 mg/kg/injection, schedule: Q04DX003 (ip), vehicle: saline with Tween-80) 1 of 6.
Regarding `C=C1N(C)c2ccccc2C1(C)C`, the survivor count (dose: 16.0 mg/kg/injection, schedule: Q01DX015 (ip), vehicle: carboxymethylcellulose (CMC)) is given as 3 of 6.
Regarding `Cc1ccc(S(=O)(=O)N/N=C2\C(=O)C3CCC2C3Cl)cc1` (configuration not stated), the survivor count (dose: 300.0 mg/kg/injection, schedule: Q01DX001 (ip), vehicle: other) is 0 of 6.
As to `C[Se]c1ncnc2c1ccn2C1OC(CO)C(O)C1O` (configuration not stated), the survivor count (dose: 100.0 mg/kg/injection, schedule: Q01DX005 (ip), vehicle: saline) is 0 of 6; the survivor count (dose: 100.0 mg/kg/injection, schedule: Q01DX009 (ip), vehicle: saline) is 4 of 6; the survivor count (dose: 200.0 mg/kg/injection, schedule: Q01DX005 (ip), vehicle: saline) is 0 of 6; the survivor count (dose: 200.0 mg/kg/injection, schedule: Q01DX009 (ip), vehicle: saline) is listed as 4 of 6.
Consider `COc1ccc(CCC(C)=O)cc1OC`, for which the survivor count under setting [2] is reported as 3 of 6.
